PubChem BioAssay AID1259254 | NCATS, 2017
Aim: 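Finding genes that stop cells copying their DNA twice in one cycle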 (primary screen). Cell system: human HCT116 colorectal cancer cells. Reagents: single siRNA against human genes. Time to read-out: 3 days. Measured: 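Nuclei stained with Hoechst and imaged; cell-cycle phase assigned by DNA content; G2 share scaled per plate, non-targeting siRNA 0%, GMNN siRNA 100%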. Scale: G2 robust z-score and G2 cells, % of GMNN control: higher = more G2 cells, more excess DNA replication; raw share of cells in G2: higher = larger share of cells with G2 DNA content. Call rule: 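Active siRNAs have a G2 robust z of 5 or more median absolute deviations over the median, which in these data means about 38% or higher of GMNN control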.
The deposit covers about 59,000 reagents; shown is a part drawn at random. About 1,550 of all reagents (2.6%) count as active. 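G2 share is only a proxy for re-replication; each gene was hit by three separate siRNAs, and active genes were retested.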 Raw values vary from plate to plate and are shown uncorrected. Unmarked entries are inactive. Reagents against one gene are numbered here. No sequences are given here. The record does not give: the amount of reagent.

no.	target gene	reagent	G2 robust z-score	G2 cells, % of GMNN control	raw share of cells in G2 (%)
1	MYH11	1	-0.902	-3.38	4.13
2	MYH11	2	2.43	20	9.8
3	MYH11	3	-0.714	-2.06	4.56
4	CCDC8	1	-0.144	1.95	3
5	CCDC8	2	0.523	6.64	6.32
6	CCDC8	3	0.231	4.59	4.82
7	EIF2AK4	1	-0.64	-1.53	5.11
8	EIF2AK4	2	0.0419	3.26	6.38
9	EIF2AK4	3	2.63	21.5	10.6
10	KRT86	1	0.268	4.85	5.44
11	KRT86	2	0.631	7.41	5.91
12	KRT86	3	-0.673	-1.77	2.25
13	KRT86	4	0.722	8.05	5.85
14	KRT86	5	-1.33	-6.39	2.89
15	KRT86	6	-1.21	-5.53	3.28
16	ENAH	1	0.695	7.86	7.54
17	ENAH	2	1.56	13.9	9.91
18	ENAH	3	4.05	31.5	13.2
19	ZAR1L	1	0.81	8.66	5.79
20	ZAR1L	2	0.0297	3.18	4.97
21	ZAR1L	3	-0.795	-2.63	2.25
22	USP41P	1	2.14	18	10.4
23	USP41P	2	1.69	14.9	9.79
24	USP41P	3	-0.929	-3.57	4.09
25	SPACA4	1	-0.59	-1.18	2.39
26	SPACA4	2	-0.869	-3.14	2.48
27	SPACA4	3	-0.0717	2.46	3.78
28	SRSF1	1	1.94	16.6	11.3
29	SRSF1	2	0.745	8.21	7.36
30	SRSF1	3	11 (active)	80.4	30.6
31	CXorf58	1	-0.289	0.931	3.92
32	CXorf58	2	0.505	6.52	5.36
33	CXorf58	3	-0.561	-0.977	2.88
34	BCL2L14	1	-0.718	-2.08	4.78
35	BCL2L14	2	0.33	5.29	6.22
36	BCL2L14	3	-0.17	1.77	4.87
37	EFTUD2	1	1.65	14.6	9.93
38	EFTUD2	2	2.14	18.1	11.6
39	EFTUD2	3	1.56	13.9	10.9
40	IGSF11	1	-0.197	1.58	4.36
41	IGSF11	2	3.07	24.6	10.5
42	IGSF11	3	-0.499	-0.541	2.88
43	IQCK	1	-0.68	-1.82	3.36
44	IQCK	2	-0.202	1.54	3.79
45	IQCK	3	0.0124	3.05	2.71
46	TLL2	1	2.47	20.4	12.7
47	TLL2	2	0.155	4.06	6.34
48	TLL2	3	-0.276	1.03	4.29
49	ATP4B	1	-0.18	1.7	5.3
50	ATP4B	2	-0.0264	2.78	5.03
51	ATP4B	3	0.155	4.06	6.52
52	ST8SIA4	1	1.06	10.5	10
53	ST8SIA4	2	-0.767	-2.43	3.68
54	ST8SIA4	3	-0.43	-0.0554	4.24
55	RAB6C	1	-1.02	-4.23	2.66
56	RAB6C	2	2.05	17.4	12.7
57	RAB6C	3	-0.585	-1.15	4.36
58	FAM13A	1	-1.44	-7.13	2.11
59	FAM13A	2	1.08	10.6	8.35
60	FAM13A	3	0.412	5.87	5.54
61	HLA-DOA	1	-0.76	-2.38	4.19
62	HLA-DOA	2	-0.0993	2.27	4.92
63	HLA-DOA	3	-1.06	-4.47	1.77
64	DNAH2	1	-0.356	0.464	4.87
65	DNAH2	2	-0.824	-2.83	4.61
66	DNAH2	3	-0.559	-0.966	4.29
67	ALDH1B1	1	-0.357	0.455	4.16
68	ALDH1B1	2	-0.215	1.45	5.21
69	ALDH1B1	3	-0.413	0.0624	5.1
70	PLCG1	1	-0.423	-0.0104	4.97
71	PLCG1	2	-0.507	-0.603	4.45
72	PLCG1	3	0.12	3.81	5.41
73	TDRD1	1	4.3	33.2	18.2
74	TDRD1	2	-0.696	-1.93	5.59
75	TDRD1	3	-0.621	-1.4	3.94
76	LINC01600	1	-0.55	-0.904	3.28
77	LINC01600	2	-0.503	-0.569	2.77
78	LINC01600	3	1.54	13.8	7.13
79	ADAP2	1	0.14	3.95	8.16
80	ADAP2	2	-0.269	1.07	4.82
81	ADAP2	3	5.36 (active)	40.7	21.3
82	NDUFB1	1	-1.35	-6.56	1.03
83	NDUFB1	2	0.402	5.8	7.77
84	NDUFB1	3	2.64	21.5	13.7
85	PSMB8	1	1.88	16.2	11.2
86	PSMB8	2	2.42	20	12
87	PSMB8	3	-0.423	-0.011	3.91
